Patent publication US20160122407A1, “Galectin-3 Inhibitor (Gal-3M) is Associated with Additive Anti-Myeloma and Anti-Solid Tumor Effects, Decreased Osteoclastogenesis and Organ Protection when Used in Combination with Proteasome Inhibitors” (Texas Tech University System, priority 2014, published 2016)
Some of these results come from one statement about several compounds together.

Test system: 5TGM1 cells
Assay: Cell viability assay (ViaLight Plus)
Assay type: cell-based, murine
Conditions: treated for 48 hours
Protocol: Cell viability assay. 5TGM1 cells were treated for 48 hours with carfilzomib, Gal3M or the combination of these two agents, then cell viability was assessed by the ViaLight Plus Cell Proliferation and Cytotoxicity BioAssay Kit (Lonza) according to the directions of the manufacturer.

Structure (SMILES): CC(C)C[C@H](NC(=O)[C@H](CCc1ccccc1)NC(=O)CN1CCOCC1)C(=O)N[C@@H](Cc1ccccc1)C(=O)N[C@@H](CC(C)C)C(=O)[C@@]1(C)CO1 [Carfilzomib]
- cell growth inhibition: 20-40%
